# Assay results taken from the supplement of paper PMC8728848.
# The other results are listed elsewhere or left out.
# B1: Lb MiSSP8 (Laccaria bicolor) (protein)
# chain: MYFHTLFACATLMLITTAHASPTVINSLDSRKADLNGDVEARHAADWRRDSDWRRDSDWRRDSDWRRDSD
# Key:
# Assay in all cases: glycan array binding signal (z-score within array); higher = stronger binding
# Details in all cases: glycan notation: IUPAC condensed, linker removed
# Fuc(a1-2)Gal = biological target: Fuc(a1-2)Gal
# Method in brief: (§1)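 Glycan array data came from 3228 arrays in the Consortium for Functional Glycomics database, and only arrays with an available protein sequence were kept. Glycan names were put into IUPAC-condensed notation, and columns mapping to the same glycan were averaged. The binding signal is a within-array Z-score, averaged across arrays of one protein sequence run at different concentrations or buffers and across linkers. A negative Z-score can be read as non-binding.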
# Fuc(a1-2)Gal(b1-3)GalNAc = biological target: Fuc(a1-2)Gal(b1-3)GalNAc
# Method in brief: as §1
# [1] = biological target: Fuc(a1-2)Gal(b1-3)GalNAc(a1-3)[Fuc(a1-2)]Gal(b1-4)Glc
# Method in brief: as §1
# [2] = biological target: Fuc(a1-2)Gal(b1-3)GalNAc(a1-3)[Fuc(a1-2)]Gal(b1-4)GlcNAc
# Method in brief: as §1
# [3] = biological target: Fuc(a1-2)Gal(b1-3)GalNAc(b1-3)Gal
# Method in brief: as §1
# [4] = biological target: Fuc(a1-2)Gal(b1-3)GalNAc(b1-3)Gal(a1-4)Gal(b1-4)Glc
# Method in brief: as §1
# [5] = biological target: Fuc(a1-2)Gal(b1-3)GalNAc(b1-4)[Neu5Ac(a2-3)]Gal(b1-4)Glc
# Method in brief: as §1
# Fuc(a1-2)Gal(b1-3)GlcNAc = biological target: Fuc(a1-2)Gal(b1-3)GlcNAc
# Method in brief: as §1
# [6] = biological target: Fuc(a1-2)Gal(b1-3)GlcNAc(b1-2)Man(a1-3)[Fuc(a1-2)Gal(b1-3)GlcNAc(b1-2)Man(a1-6)]Man(b1-4)GlcNAc(b1-4)GlcNAc
# Method in brief: as §1
# [7] = biological target: Fuc(a1-2)Gal(b1-3)GlcNAc(b1-2)Man(a1-3)[Fuc(a1-2)Gal(b1-3)GlcNAc(b1-2)Man(a1-6)]Man(b1-4)GlcNAc(b1-4)[Fuc(a1-6)]GlcNAc
# Method in brief: as §1
# [8] = biological target: Fuc(a1-2)Gal(b1-3)GlcNAc(b1-3)Gal(b1-4)Glc
# Method in brief: as §1
# [9] = biological target: Fuc(a1-2)Gal(b1-3)GlcNAc(b1-3)GalNAc
# Method in brief: as §1
# [10] = biological target: Fuc(a1-2)Gal(b1-3)GlcNAc(b1-3)[Fuc(a1-2)Gal(b1-3)GlcNAc(b1-6)]GalNAc
# Method in brief: as §1
# [11] = biological target: Fuc(a1-2)Gal(b1-3)GlcNAc(b1-3)[Gal(b1-4)GlcNAc(b1-6)]Gal(b1-4)Glc
# Method in brief: as §1
# [12] = biological target: Fuc(a1-2)Gal(b1-3)GlcNAc(b1-3)[Neu5Ac(a2-6)Gal(b1-4)GlcNAc(b1-6)]Gal(b1-4)Glc
# Method in brief: as §1
# [13] = biological target: Fuc(a1-2)Gal(b1-3)GlcNAc6S
# Method in brief: as §1
# [14] = biological target: Fuc(a1-2)Gal(b1-3)[Fuc(a1-4)]GlcNAc
# Method in brief: as §1
# [15] = biological target: Fuc(a1-2)Gal(b1-3)[Fuc(a1-4)]GlcNAc(b1-2)Man(a1-3)[Fuc(a1-2)Gal(b1-3)[Fuc(a1-4)]GlcNAc(b1-2)Man(a1-3)]Man(b1-4)GlcNAc(b1-4)GlcNAc
# Method in brief: as §1
# [16] = biological target: Fuc(a1-2)Gal(b1-3)[Fuc(a1-4)]GlcNAc(b1-2)Man(a1-3)[Fuc(a1-2)Gal(b1-3)[Fuc(a1-4)]GlcNAc(b1-2)Man(a1-6)]Man(b1-4)GlcNAc(b1-4)[Fuc(a1-6)]GlcNAc(b1-4)[Fuc(a1-6)]GlcNAc
# Method in brief: as §1
# [17] = biological target: Fuc(a1-2)Gal(b1-3)[Fuc(a1-4)]GlcNAc(b1-3)[Fuc(a1-3)[Gal(b1-4)]GlcNAc(b1-6)]Gal(b1-4)Glc
# Method in brief: as §1
# [18] = biological target: Fuc(a1-2)Gal(b1-3)[Fuc(a1-4)]GlcNAc(b1-3)[Gal(b1-4)GlcNAc(b1-6)]Gal(b1-4)Glc
# Method in brief: as §1
# Fuc(a1-2)Gal(b1-4)Glc = biological target: Fuc(a1-2)Gal(b1-4)Glc
# Method in brief: as §1
# Fuc(a1-2)Gal(b1-4)Glc6S = biological target: Fuc(a1-2)Gal(b1-4)Glc6S
# Method in brief: as §1
# Fuc(a1-2)Gal(b1-4)GlcNAc = biological target: Fuc(a1-2)Gal(b1-4)GlcNAc
# Method in brief: as §1
# [19] = biological target: Fuc(a1-2)Gal(b1-4)GlcNAc(b1-2)Man
# Method in brief: as §1
# [20] = biological target: Fuc(a1-2)Gal(b1-4)GlcNAc(b1-2)Man(a1-3)[Fuc(a1-2)Gal(b1-4)GlcNAc(b1-2)Man(a1-6)]Man(b1-4)GlcNAc(b1-4)GlcNAc
# Method in brief: as §1
# [21] = biological target: Fuc(a1-2)Gal(b1-4)GlcNAc(b1-2)Man(a1-3)[Fuc(a1-2)Gal(b1-4)GlcNAc(b1-2)Man(a1-6)]Man(b1-4)GlcNAc(b1-4)[Fuc(a1-6)]GlcNAc
# Method in brief: as §1
# [22] = biological target: Fuc(a1-2)Gal(b1-4)GlcNAc(b1-2)[Fuc(a1-2)Gal(b1-4)GlcNAc(b1-4)]Man(a1-3)[Fuc(a1-2)Gal(b1-4)GlcNAc(b1-2)Man(a1-6)]Man(b1-4)GlcNAc(b1-4)GlcNAc
# Method in brief: as §1
# [23] = biological target: Fuc(a1-2)Gal(b1-4)GlcNAc(b1-3)Gal(b1-4)GlcNAc
# Method in brief: as §1
# [24] = biological target: Fuc(a1-2)Gal(b1-4)GlcNAc(b1-3)Gal(b1-4)GlcNAc(b1-2)Man(a1-3)[Fuc(a1-2)Gal(b1-4)GlcNAc(b1-3)Gal(b1-4)GlcNAc(b1-2)Man(a1-6)]Man(b1-4)GlcNAc(b1-4)GlcNAc
# Method in brief: as §1
binder,measurement,setting,value
B1,glycan array binding signal (z-score),Fuc(a1-2)Gal,0.941
same,glycan array binding signal (z-score),Fuc(a1-2)Gal(b1-3)GalNAc,-0.15
same,glycan array binding signal (z-score),[1],-0.661
same,glycan array binding signal (z-score),[2],-0.785
same,glycan array binding signal (z-score),[3],1.16
same,glycan array binding signal (z-score),[4],0.285
same,glycan array binding signal (z-score),[5],-0.488
same,glycan array binding signal (z-score),Fuc(a1-2)Gal(b1-3)GlcNAc,-0.682
same,glycan array binding signal (z-score),[6],1.36
same,glycan array binding signal (z-score),[7],1.26
same,glycan array binding signal (z-score),[8],-0.461
same,glycan array binding signal (z-score),[9],-0.53
same,glycan array binding signal (z-score),[10],0.34
same,glycan array binding signal (z-score),[11],0.202
same,glycan array binding signal (z-score),[12],-0.267
same,glycan array binding signal (z-score),[13],-0.005
same,glycan array binding signal (z-score),[14],-0.26
same,glycan array binding signal (z-score),[15],1.44
same,glycan array binding signal (z-score),[16],0.637
same,glycan array binding signal (z-score),[17],-0.178
same,glycan array binding signal (z-score),[18],0.098
same,glycan array binding signal (z-score),Fuc(a1-2)Gal(b1-4)Glc,-0.205
same,glycan array binding signal (z-score),Fuc(a1-2)Gal(b1-4)Glc6S,0.354
same,glycan array binding signal (z-score),Fuc(a1-2)Gal(b1-4)GlcNAc,-0.16
same,glycan array binding signal (z-score),[19],0.016
same,glycan array binding signal (z-score),[20],0.271
same,glycan array binding signal (z-score),[21],0.699
same,glycan array binding signal (z-score),[22],0.844
same,glycan array binding signal (z-score),[23],-0.509
same,glycan array binding signal (z-score),[24],1.42

# Fetched one by one from the entries so far, two records:
binder,measurement,setting,value
B1,glycan array binding signal (z-score),Fuc(a1-2)Gal(b1-3)GlcNAc,-0.682
same,glycan array binding signal (z-score),[21],0.699
